According to patent US20260146099A1 (SELVAX, published 2026):
Results are given in words; binding and its absence hold for the method and conditions named. Some results given as binding are weak or reduced against the parent protein; the word gives no strength. Sequences can lack the tags named with a protein.

Chains of the proteins cited; added tags and fusions are not shown. Residues count along the entry.
UniProt O97626, residues 112-260: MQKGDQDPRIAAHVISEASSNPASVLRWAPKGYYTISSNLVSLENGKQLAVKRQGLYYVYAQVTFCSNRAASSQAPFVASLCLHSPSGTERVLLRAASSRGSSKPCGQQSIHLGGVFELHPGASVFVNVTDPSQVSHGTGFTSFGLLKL

Key:
[1] = molecular target: T1, Recombinant canine CD40 extracellular domain with human IgG1 Fc domain tag (canine; human) (UniProt Q7YRL5); experiment: pair-wise SPR, caCD40-Fc immobilised
T1 sequence (looked up): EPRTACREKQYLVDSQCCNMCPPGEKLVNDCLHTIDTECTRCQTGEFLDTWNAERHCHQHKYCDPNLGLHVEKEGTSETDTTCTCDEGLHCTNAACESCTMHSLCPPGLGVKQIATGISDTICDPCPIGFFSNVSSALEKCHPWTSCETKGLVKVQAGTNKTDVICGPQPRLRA

[2] = molecular target: T1, Recombinant canine CD40 extracellular domain with human IgG1 Fc domain tag (canine; human); experiment: pair-wise SPR, caCD40-Fc immobilised, SVX-2001 injected first, caCD40L second
[3] = molecular target: T1, Recombinant canine CD40 extracellular domain with human IgG1 Fc domain tag (canine; human); experiment: SPR pair-wise binding, caCD40-Fc on the chip already loaded with SVX-2001 at 25 µg/ml

- binding [1]: binds
- binding [2]: binds
- binding [3]: binds
Substance: canine CD40 ligand (from UniProt O97626 112-260)
